Consider two substances from article PMC10794146.

By UniProt entry, the sequences of proteins in these tests, tags left out.
UniProt P35580: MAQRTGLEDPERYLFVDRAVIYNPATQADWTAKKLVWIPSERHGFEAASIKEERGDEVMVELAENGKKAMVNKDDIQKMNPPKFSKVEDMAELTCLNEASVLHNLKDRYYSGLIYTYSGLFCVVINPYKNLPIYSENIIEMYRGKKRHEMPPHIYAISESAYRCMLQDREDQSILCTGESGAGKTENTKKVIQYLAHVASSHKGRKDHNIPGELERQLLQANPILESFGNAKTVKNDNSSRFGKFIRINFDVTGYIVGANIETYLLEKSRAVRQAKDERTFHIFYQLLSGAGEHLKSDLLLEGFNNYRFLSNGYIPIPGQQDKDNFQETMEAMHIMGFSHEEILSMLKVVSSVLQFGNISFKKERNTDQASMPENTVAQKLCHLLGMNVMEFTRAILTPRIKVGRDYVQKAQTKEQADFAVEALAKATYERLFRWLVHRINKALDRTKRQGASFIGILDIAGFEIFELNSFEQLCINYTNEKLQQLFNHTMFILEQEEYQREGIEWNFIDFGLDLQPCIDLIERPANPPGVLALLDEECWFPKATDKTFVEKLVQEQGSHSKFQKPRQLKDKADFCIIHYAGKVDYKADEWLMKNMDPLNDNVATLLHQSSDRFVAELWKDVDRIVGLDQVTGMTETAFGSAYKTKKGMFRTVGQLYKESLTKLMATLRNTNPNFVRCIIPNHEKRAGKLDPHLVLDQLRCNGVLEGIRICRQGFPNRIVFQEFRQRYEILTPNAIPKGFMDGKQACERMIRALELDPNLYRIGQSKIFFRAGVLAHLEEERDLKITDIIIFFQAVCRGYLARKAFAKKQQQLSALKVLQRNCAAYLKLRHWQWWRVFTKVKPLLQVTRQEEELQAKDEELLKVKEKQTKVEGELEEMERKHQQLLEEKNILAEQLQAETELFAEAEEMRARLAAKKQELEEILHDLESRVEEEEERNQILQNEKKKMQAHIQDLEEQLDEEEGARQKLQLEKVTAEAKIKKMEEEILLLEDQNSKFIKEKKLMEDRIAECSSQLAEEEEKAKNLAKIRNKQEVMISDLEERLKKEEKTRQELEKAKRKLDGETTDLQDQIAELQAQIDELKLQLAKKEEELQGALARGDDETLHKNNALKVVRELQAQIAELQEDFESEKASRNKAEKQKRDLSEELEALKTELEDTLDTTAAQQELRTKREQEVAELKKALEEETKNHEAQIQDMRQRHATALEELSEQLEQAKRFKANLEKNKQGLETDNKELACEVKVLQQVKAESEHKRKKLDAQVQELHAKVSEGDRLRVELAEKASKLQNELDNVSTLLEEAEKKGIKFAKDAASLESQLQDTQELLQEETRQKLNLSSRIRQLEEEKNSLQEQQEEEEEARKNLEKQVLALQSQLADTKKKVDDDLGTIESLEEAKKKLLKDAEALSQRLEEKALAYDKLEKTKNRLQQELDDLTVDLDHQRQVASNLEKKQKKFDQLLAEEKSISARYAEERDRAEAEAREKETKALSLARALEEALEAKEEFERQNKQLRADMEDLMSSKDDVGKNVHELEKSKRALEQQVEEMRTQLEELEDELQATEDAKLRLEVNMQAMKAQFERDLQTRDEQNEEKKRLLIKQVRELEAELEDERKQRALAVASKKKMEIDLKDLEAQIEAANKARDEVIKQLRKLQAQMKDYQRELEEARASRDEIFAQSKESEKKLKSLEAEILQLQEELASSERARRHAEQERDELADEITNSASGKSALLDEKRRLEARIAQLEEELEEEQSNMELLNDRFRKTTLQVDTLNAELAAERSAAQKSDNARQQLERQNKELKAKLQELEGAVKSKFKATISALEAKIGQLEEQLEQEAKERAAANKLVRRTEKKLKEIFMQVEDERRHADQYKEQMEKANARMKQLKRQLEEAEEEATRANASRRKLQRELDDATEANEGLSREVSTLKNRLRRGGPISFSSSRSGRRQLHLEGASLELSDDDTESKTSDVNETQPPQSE
UniProt P35579: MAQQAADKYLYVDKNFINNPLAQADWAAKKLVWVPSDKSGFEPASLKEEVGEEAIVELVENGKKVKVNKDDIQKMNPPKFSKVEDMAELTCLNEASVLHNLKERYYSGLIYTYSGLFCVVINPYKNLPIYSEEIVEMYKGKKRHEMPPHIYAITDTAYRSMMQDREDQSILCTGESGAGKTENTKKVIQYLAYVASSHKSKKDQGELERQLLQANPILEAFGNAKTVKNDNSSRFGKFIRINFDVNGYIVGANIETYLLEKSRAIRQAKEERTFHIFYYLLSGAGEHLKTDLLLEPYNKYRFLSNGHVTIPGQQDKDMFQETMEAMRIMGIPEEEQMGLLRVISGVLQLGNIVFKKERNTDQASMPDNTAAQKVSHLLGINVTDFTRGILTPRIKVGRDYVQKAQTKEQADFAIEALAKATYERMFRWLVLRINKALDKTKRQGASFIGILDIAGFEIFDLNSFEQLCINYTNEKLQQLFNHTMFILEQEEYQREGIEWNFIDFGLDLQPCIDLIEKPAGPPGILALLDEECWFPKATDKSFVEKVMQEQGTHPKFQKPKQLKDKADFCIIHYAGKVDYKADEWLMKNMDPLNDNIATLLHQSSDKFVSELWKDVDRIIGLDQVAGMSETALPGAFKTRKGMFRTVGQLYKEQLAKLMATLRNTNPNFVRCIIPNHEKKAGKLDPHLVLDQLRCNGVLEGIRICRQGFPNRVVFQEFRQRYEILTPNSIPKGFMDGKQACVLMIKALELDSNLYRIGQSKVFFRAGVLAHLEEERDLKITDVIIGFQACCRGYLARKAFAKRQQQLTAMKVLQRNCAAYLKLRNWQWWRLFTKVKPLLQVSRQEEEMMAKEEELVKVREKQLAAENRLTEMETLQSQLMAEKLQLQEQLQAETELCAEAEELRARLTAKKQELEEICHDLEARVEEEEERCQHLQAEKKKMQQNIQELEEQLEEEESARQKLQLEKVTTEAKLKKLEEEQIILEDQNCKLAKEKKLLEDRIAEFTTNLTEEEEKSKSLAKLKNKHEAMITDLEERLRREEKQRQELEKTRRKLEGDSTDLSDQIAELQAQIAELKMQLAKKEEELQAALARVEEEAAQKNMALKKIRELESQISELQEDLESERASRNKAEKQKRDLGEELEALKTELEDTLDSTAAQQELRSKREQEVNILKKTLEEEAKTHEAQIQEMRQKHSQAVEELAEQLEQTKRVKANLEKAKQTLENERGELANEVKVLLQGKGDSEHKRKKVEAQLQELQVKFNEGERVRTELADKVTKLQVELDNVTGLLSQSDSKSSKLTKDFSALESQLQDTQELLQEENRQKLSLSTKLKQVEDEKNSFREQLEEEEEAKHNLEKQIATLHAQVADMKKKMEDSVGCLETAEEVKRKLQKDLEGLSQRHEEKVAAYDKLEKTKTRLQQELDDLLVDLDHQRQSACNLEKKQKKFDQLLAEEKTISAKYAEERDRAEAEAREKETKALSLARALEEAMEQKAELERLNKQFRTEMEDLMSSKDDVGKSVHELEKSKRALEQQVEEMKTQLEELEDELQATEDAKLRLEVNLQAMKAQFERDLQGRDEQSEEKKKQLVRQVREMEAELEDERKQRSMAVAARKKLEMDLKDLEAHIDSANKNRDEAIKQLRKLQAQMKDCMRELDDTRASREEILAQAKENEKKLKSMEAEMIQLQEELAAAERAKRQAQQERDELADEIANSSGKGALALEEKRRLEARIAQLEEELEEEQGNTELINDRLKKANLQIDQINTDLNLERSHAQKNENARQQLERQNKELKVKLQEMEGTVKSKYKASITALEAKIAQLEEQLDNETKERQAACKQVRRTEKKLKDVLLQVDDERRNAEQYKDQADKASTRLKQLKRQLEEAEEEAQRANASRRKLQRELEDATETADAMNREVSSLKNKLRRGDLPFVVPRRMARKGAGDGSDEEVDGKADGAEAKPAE

The target in the assay is T1, Laminin-5γ-2 (LAMC2) (human (endogenous in A549 and MCF7)) (UniProt Q13753).
T1 sequence: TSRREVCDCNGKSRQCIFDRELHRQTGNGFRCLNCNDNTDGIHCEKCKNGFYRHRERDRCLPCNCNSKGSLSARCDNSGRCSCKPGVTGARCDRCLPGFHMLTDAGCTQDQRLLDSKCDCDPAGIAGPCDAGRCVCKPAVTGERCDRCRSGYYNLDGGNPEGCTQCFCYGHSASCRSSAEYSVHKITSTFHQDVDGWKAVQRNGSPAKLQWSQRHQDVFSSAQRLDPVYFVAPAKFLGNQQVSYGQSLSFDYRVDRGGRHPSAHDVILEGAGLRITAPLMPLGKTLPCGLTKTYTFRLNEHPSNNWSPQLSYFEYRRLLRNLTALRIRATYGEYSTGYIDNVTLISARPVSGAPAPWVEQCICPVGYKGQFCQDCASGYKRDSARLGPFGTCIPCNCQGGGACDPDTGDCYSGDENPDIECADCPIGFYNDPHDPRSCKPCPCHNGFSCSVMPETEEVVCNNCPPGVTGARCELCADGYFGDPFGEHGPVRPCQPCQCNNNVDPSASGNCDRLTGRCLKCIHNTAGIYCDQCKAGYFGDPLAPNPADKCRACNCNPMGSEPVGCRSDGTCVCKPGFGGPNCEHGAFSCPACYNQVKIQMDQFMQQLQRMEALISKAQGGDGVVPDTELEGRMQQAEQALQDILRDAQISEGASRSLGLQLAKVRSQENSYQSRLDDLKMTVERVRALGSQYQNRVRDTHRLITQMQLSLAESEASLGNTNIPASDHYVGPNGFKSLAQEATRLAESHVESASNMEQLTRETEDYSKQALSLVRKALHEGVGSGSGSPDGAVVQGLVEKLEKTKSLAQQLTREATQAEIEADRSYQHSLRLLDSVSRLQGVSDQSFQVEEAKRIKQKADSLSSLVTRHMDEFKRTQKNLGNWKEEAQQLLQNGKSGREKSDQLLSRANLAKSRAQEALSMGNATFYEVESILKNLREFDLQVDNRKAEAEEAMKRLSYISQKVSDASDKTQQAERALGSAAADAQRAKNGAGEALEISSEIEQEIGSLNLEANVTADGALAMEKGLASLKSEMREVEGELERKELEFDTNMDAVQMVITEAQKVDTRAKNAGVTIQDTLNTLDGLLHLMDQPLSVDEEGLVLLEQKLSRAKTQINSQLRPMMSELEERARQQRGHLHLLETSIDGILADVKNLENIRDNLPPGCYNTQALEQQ
The experiment in a line: affinity purification with mass spectrometry; immunoprecipitation of LAMC2 from A549 cells coupled to mass spectrometry (IP-MS); co-purified proteins also shown by silver staining.

These are yes or no findings as the source states them, for the method shown. In cells and extracts the contact can be indirect. These calls come from enrichment with a bait or labelling near it, and not all partners need be listed.

Consider “myosin heavy-chain 10 (MYH10) (from UniProt P35580 1-1976)”, for which the binding result is reported as “binds”.

As to “myosin heavy-chain 9 (MYH9) (from UniProt P35579 1-1960)”, the binding result is listed as “binds”.
